# Cleaved PARP in drug-treated melanoma cells

From a melanoma drug combination screen (doi:10.1371/journal.pone.0140310); values rounded.

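Human melanoma cells were exposed to a pair of drugs for 72 h in 1,536-well plates and read by automated microscopy after fixing and staining. The read-out is the fraction of cleaved-PARP-positive nuclei, in % of that fraction in the DMSO control; 200 means twice the control level of this apoptosis marker. Concentrations were fixed for each drug; these are the higher of two levels. No replicate spread is given; individual values may be noisy. The marker varies much from line to line, for technical or biological reasons.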 Only some of the drugs and lines screened are listed, without regard to their results. A dash means that no value is listed here.

Drug key:
sorafenib: CNC(=O)c1cc(Oc2ccc(NC(=O)Nc3ccc(Cl)c(C(F)(F)F)c3)cc2)ccn1 at 2000 nM
pioglitazone: CCc1ccc(CCOc2ccc(CC3SC(=O)NC3=O)cc2)nc1 (centres unmarked) at 10000 nM
crizotinib: C[C@@H](Oc1cc(-c2cnn(C3CCNCC3)c2)cnc1N)c1c(Cl)ccc(F)c1Cl at 1000 nM
OSI-906: C[C@]1(O)C[C@@H](c2nc(-c3ccc4ccc(-c5ccccc5)nc4c3)c3c(N)nccn32)C1 at 2000 nM
SNS-314: O=C(Nc1cccc(Cl)c1)Nc1ncc(CCNc2ncnc3ccsc23)s1 at 4 nM
LFM-A13: C/C(O)=C(\C#N)C(=O)Nc1cc(Br)ccc1Br at 10000 nM
T0901317: O=S(=O)(c1ccccc1)N(CC(F)(F)F)c1ccc(C(O)(C(F)(F)F)C(F)(F)F)cc1 at 7000 nM
AS-252424: O=C1NC(=O)/C(=C/c2ccc(-c3ccc(F)cc3O)o2)S1 at 5000 nM
erlotinib: C#Cc1cccc(Nc2ncnc3cc(OCCOC)c(OCCOC)cc23)c1 at 4000 nM
ENMD-2076: Cc1cc(Nc2cc(N3CCN(C)CC3)nc(/C=C/c3ccccc3)n2)n[nH]1 at 200 nM
lenalidomide: Nc1cccc2c1CN(C1CCC(=O)NC1=O)C2=O (centres unmarked) at 5000 nM
tozasertib: Cc1cc(Nc2cc(N3CCN(C)CC3)nc(Sc3ccc(NC(=O)C4CC4)cc3)n2)n[nH]1 at 30 nM

| # | Pair | MeWo | UACC-62 | SK-MEL-30 | WM3526 | A101D | A375 |
|---|---|---|---|---|---|---|---|
| 1 | crizotinib + SNS-314 | 224 | 130 | 141 | 59.8 | 124 | - |
| 2 | ENMD-2076 + OSI-906 | 109 | 176 | 86.6 | 181 | 89.8 | 17.5 |
| 3 | AS-252424 + LFM-A13 | 54.2 | 133 | 65.1 | 63.6 | 25.0 | 40.1 |
| 4 | SNS-314 + LFM-A13 | 146 | 355 | 126 | 116 | 55.1 | 90.0 |
| 5 | erlotinib + LFM-A13 | 39.6 | 220 | 31.5 | 110 | 67.1 | 91.0 |
| 6 | sorafenib + OSI-906 | 99.6 | 220 | 44.5 | 281 | 79.0 | 104 |
| 7 | LFM-A13 + ENMD-2076 | 108 | 253 | 165 | 139 | 44.4 | 151 |
| 8 | sorafenib + AS-252424 | 48.4 | 92.8 | 72.9 | 56.7 | 81.2 | 42.5 |
| 9 | OSI-906 + LFM-A13 | 149 | 339 | 67.2 | 146 | 92.8 | 118 |
| 10 | SNS-314 + lenalidomide | 38.8 | 155 | 97.3 | 113 | 98.1 | - |
| 11 | sorafenib + T0901317 | 134 | 237 | 102 | 52.1 | 51.1 | 94.0 |
| 12 | T0901317 + pioglitazone | 145 | 113 | 131 | 90.2 | 88.2 | 59.9 |
| 13 | lenalidomide + sorafenib | 54.0 | 115 | 103 | 41.0 | 52.5 | 76.0 |
| 14 | AS-252424 + tozasertib | 209 | 160 | 137 | 156 | 168 | 74.6 |
| 15 | ENMD-2076 + sorafenib | 91.6 | 193 | 77.9 | 157 | 165 | 123 |
| 16 | pioglitazone + OSI-906 | 139 | 105 | 107 | 97.9 | 137 | 91.9 |
| 17 | lenalidomide + LFM-A13 | 42.0 | 55.6 | 132 | 156 | 123 | 95.4 |
| 18 | T0901317 + ENMD-2076 | 83.9 | 105 | 76.8 | 62.2 | 82.4 | 87.5 |
| 19 | SNS-314 + OSI-906 | 111 | 147 | 78.7 | 58.5 | 50.6 | - |
| 20 | SNS-314 + ENMD-2076 | 53.2 | 93.3 | 80.8 | 78.2 | 67.6 | - |
| 21 | SNS-314 + erlotinib | 249 | 97.8 | 55.7 | 318 | 208 | - |
| 22 | AS-252424 + erlotinib | 120 | 85.2 | 97.2 | 128 | 111 | 89.5 |
| 23 | tozasertib + T0901317 | 115 | 179 | 145 | 83.9 | 132 | 60.9 |
| 24 | lenalidomide + crizotinib | 118 | 93.1 | 76.4 | 145 | 136 | 66.6 |
| 25 | sorafenib + crizotinib | 102 | 213 | 216 | 212 | 606 | 160 |
| 26 | tozasertib + sorafenib | 88.5 | 255 | 98.7 | 190 | 79.6 | 29.8 |
| 27 | ENMD-2076 + pioglitazone | 221 | 152 | 142 | 124 | 130 | 62.7 |
| 28 | AS-252424 + lenalidomide | 146 | 118 | 83.6 | 44.0 | 40.7 | 65.4 |
| 29 | sorafenib + SNS-314 | 105 | 123 | 131 | 47.9 | 122 | - |
| 30 | pioglitazone + lenalidomide | 68.1 | 115 | 160 | 174 | 66.0 | 14.9 |
| 31 | T0901317 + SNS-314 | 127 | 46.6 | 150 | 109 | 65.4 | 172 |
| 32 | erlotinib + crizotinib | 137 | 231 | 146 | 317 | 105 | 28.3 |
| 33 | lenalidomide + T0901317 | 81.9 | 15.7 | 63.4 | 111 | 155 | 46.8 |
| 34 | pioglitazone + tozasertib | 151 | 161 | 100 | 153 | 131 | 58.0 |
| 35 | AS-252424 + crizotinib | 59.9 | 37.6 | 118 | 73.6 | 99.7 | 50.9 |

3 of the entries, repeated:

Pair	MeWo	UACC-62	SK-MEL-30	WM3526	A101D	A375
pioglitazone + lenalidomide	68.1	115	160	174	66.0	14.9
ENMD-2076 + OSI-906	109	176	86.6	181	89.8	17.5
AS-252424 + tozasertib	209	160	137	156	168	74.6